Test results taken from the supplement of paper PMC4962491.
± gives the standard deviation of the averaged measurements. The entries are a selection whose mix differs from that of the whole data set. Single values are uncertain here, since repeats match poorly.

Test system: FaDu
Assay: mitochondrial oxygen consumption rate normalised to cell number, Z score over the library; higher = higher oxygen consumption (negative = OCR reduction)
Conditions: treatment time 24 h, assay medium: 5 mM galactose, 5 mM pyruvate, 4 mM glutamine
Description: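 Primary screen: FaDu cells were incubated 24 h with Pharmakon 1600 / TDI oncology set compounds at 2 or 10 uM. Mitochondrial-specific OCR (basal minus 2 uM antimycin A) was measured on a Seahorse XF96 in assay medium with 5 mM galactose, 5 mM pyruvate and 4 mM glutamine, then corrected for Hoechst cell number and expressed as a Z score […]. Compounds that cut cell number by >66% were excluded. Two repeats.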

SMILES | mitochondrial oxygen consumption rate normalised (2 µM) | mitochondrial oxygen consumption rate normalised (10 µM)
COc1cc2c(cc1OC)[C@@]13CCN4CC5=CCO[C@H]6CC(=O)N2[C@H]1[C@H]6[C@H]5C[C@H]43 | 0.223 ± 0.42 | –
COC(=O)C1=CCCN(C)C1 | -0.399 ± 0.78 | –
CCC1(c2ccc(N)cc2)CCC(=O)NC1=O (centres undefined) | 1.74 ± 1.1 | –
CCN(C)C(=O)Oc1cccc([C@H](C)N(C)C)c1 | -0.548 ± 0.21 | –
C[C@@H](N)[C@@H](O)c1ccccc1 | -0.0237 ± 0.52 | –
CN(C)C(=O)Oc1cc(OC(=O)N(C)C)cc(C(O)CNC(C)(C)C)c1 (centres undefined) | -0.465 ± 0.51 | –
CC[C@@H](c1cccc(O)c1)[C@@H](C)CN(C)C | 0.915 ± 0.57 | –
CCn1cc(C(=O)O)c(=O)c2cc3c(cc21)OCO3 | 0.699 ± 0.3 | –
C[N+]1(C)[C@@H]2C[C@@H](OC(=O)[C@H](CO)c3ccccc3)C[C@H]1[C@@H]1O[C@@H]12 | 0.404 ± 0.24 | –
C[N+]1([O-])[C@@H]2CC[C@H]1C[C@@H](OC(=O)C(CO)c1ccccc1)C2 (some centres undefined) | -0.873 ± 1.1 | –
N=C1NC(=O)N2CC12 (centres undefined) | 0.389 ± 2.1 | –
COc1ccc(O)c(C(C)(C)C)c1.COc1ccc(O)cc1C(C)(C)C | -1.12 ± 1.5 | –
C[C@]12CC[C@@H]3c4ccc(OC(=O)N(CCCl)CCCl)cc4CC[C@H]3[C@@H]1CC[C@@H]2O | 0.404 ± 0.71 | –
CCN1C[C@]2(COC)[C@H](O)C[C@H](OC)[C@@]34[C@@H]5C[C@@]6(O)[C@H](OC(=O)c7ccccc7)[C@@H]5[C@@](OC(C)=O)([C@@H]([C@H](OC)[C@H]23)[C@@H]14)[C@@H](O)[C@@H]6OC | -1.39 ± 0.4 | –
O=[N+]([O-])c1cc([As](=O)(O)O)ccc1O | 0.648 ± 0.55 | –
Nc1ccncc1 | 0.745 ± 0.016 | –
O=C(O)CCCc1ccc(N(CCCl)CCCl)cc1 | -2.98 ± 0.24 | –
O=C(O)CCCc1ccc(N(CCCl)CCCl)cc1 [Chlorambucil] | 0.543 ± 0.35 | –
O=C(O[C@H]1C[C@H]2CC[C@@H](C1)[N+]21CCCC1)C(O)(c1ccccc1)c1ccccc1 | 0.137 ± 0.99 | –
COc1ccc(C(=O)N2CCCC2=O)cc1 | -0.958 ± 0.63 | –
Oc1noc2c1CCNC2 | -2.23 ± 0.1 | –
CCCC(C)C1(CC)C(=O)NC(=S)NC1=O (centres undefined) | -0.128 ± 0.012 | –
O=C1C=C2C=C[C@@H]3C[C@@]2(O1)[C@H]1CCCCN31 | 0.0589 ± 0.39 | –
CC(C)=CC1C(C(=O)OCc2cccc(Oc3ccccc3)c2)C1(C)C (centres undefined) | 1.21 ± 1.2 | –
NC(=O)C[S@@+]([O-])C(c1ccccc1)c1ccccc1 | 0.29 ± 0.78 | –
O=C1C[C@@H]2OCC=C3CN4CC[C@]56c7ccccc7N1[C@H]5[C@H]2[C@H]3C[C@H]46 | 1.25 ± 0.92 | –

Already shown: entries from further up.
SMILES | mitochondrial oxygen consumption rate normalised (2 µM) | mitochondrial oxygen consumption rate normalised (10 µM)
C[C@]12CC[C@@H]3c4ccc(OC(=O)N(CCCl)CCCl)cc4CC[C@H]3[C@@H]1CC[C@@H]2O | 0.404 ± 0.71 | –
CCN1C[C@]2(COC)[C@H](O)C[C@H](OC)[C@@]34[C@@H]5C[C@@]6(O)[C@H](OC(=O)c7ccccc7)[C@@H]5[C@@](OC(C)=O)([C@@H]([C@H](OC)[C@H]23)[C@@H]14)[C@@H](O)[C@@H]6OC | -1.39 ± 0.4 | –

The results go on.

SMILES | mitochondrial oxygen consumption rate normalised (2 µM) | mitochondrial oxygen consumption rate normalised (10 µM)
N#Cc1nn(-c2c(Cl)cc(C(F)(F)F)cc2Cl)c(N)c1[S+]([O-])C(F)(F)F (centres undefined) | 0.926 ± 0.16 | –
NCCc1cc(O)c(O)cc1O | -0.901 ± 1.3 | –
c1ccc2nc(N3CCNCC3)ccc2c1 | 0.645 ± 1.4 | –
C[N+](C)(C)CCCCCCCCCC[N+](C)(C)C | 0.0512 ± 1.1 | –
C[N+]1(C)[C@@H]2CC[C@H]1C[C@@H](OC(=O)C(CO)c1ccccc1)C2 (some centres undefined) | 0.962 ± 0.84 | –
CN1C[C@H](C(=O)N[C@]2(C)O[C@@]3(O)[C@@H]4CCCN4C(=O)[C@H](Cc4ccccc4)N3C2=O)C[C@@H]2c3cccc4[nH]cc(c34)C[C@H]21 | 0.00853 ± 0.32 | –
CC(=O)OC1CN2CCC1CC2 (centres undefined) | 0.131 ± 0.18 | –
CC(CCc1ccccc1)NC(C)C(O)c1ccc(O)cc1 (centres undefined) | 0.202 ± 0.24 | –
COc1cccc(C2(O)CCCCC2CN(C)C)c1 (centres undefined) | -0.702 ± 0.4 | –
N.N.[Cl][Pt][Cl] | 0.144 ± 0.092 | 0.355 ± 0.5
N.N.[Cl][Pt][Cl] [Cisplatin] | 0.633 ± 0.091 | -0.167 ± 0.0067
CCCN1C[C@H](CSC)C[C@@H]2c3cccc4[nH]cc(c34)C[C@H]21 | 0.623 ± 1.3 | –
CC(C)(O)C(Cl)(Cl)Cl | 0.209 ± 0.7 | –
Oc1cccc2cccnc12 | -0.493 ± 0.14 | –
Cc1ncc(CNC(=O)N(CCCl)N=O)c(N)n1 | -0.13 ± 0.092 | –
CNc1ccc(C(=O)CC(O)CCC(C)C2OC(=O)CC(O)CC(=O)CC(O)CC(O)CC(O)CC(O)CC3(O)CC(O)C(C(=O)OC)C(CC(O[C@@H]4O[C@H](C)[C@@H](O)[C@H](N)[C@@H]4O)/C=C/C=C/C=C/C=C/C=C/C=C/C=C/C2C)O3)cc1.COC(=O)C1C(O)CC2(O)CC(O)CC(O)CC(O)CC(O)CC(=O)CC(O)CC(=O)OC(C(C)CCC(O)CC(=O)c3ccc(N)cc3)C(C)/C=C/C=C/C=C/C=C/C=C/C=C/C=C/C(O[C@@H]3O[C@H](C)[C@@H](O)[C@H](N)[C@@H]3O)CC1O2 (some centres undefined) | -0.744 ± 0.59 | –
Cc1cc(O)ccc1Cl | -0.029 ± 0.18 | –
C=C[C@H]1CN2CC[C@H]1C[C@H]2[C@H](OC(=O)OCC)c1ccnc2ccc(OC)cc12 | -1.08 ± 0.46 | –
COc1ccc(CN2CCNCC2)c(OC)c1OC | 0.499 ± 0.46 | –
CC[C@H]1CN2CC[C@H]1C[C@@H]2[C@@H](O)c1ccnc2ccc(OC)cc12 | -3.3 ± 0.11 | –
CC(C)N(CCC(C(N)=O)(c1ccccc1)c1ccccn1)C(C)C (centres undefined) | -0.0968 ± 0.55 | –
N=C(N)NN | 0.366 ± 0.37 | –
O=[N+]([O-])O[C@@H]1CO[C@H]2[C@@H]1OC[C@@H]2O | 1.02 ± 0.45 | –
N[C@@H](Cc1ccc(N(CCCl)CCCl)cc1)C(=O)O [Melphalan] | 0.97 ± 0.82 | –
N[C@@H](Cc1ccc(N(CCCl)CCCl)cc1)C(=O)O | 1.68 ± 1.9 | –
Cc1ccc(-c2nc3ccc(C)cn3c2CC(=O)N(C)C)cc1 | -0.0713 ± 0.22 | –
